## Primary screen of a compound library

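Whole-parasite assay of Trypanosoma brucei over 72 hours; the read-out is not stated. Compounds at 30 µM. The record gives no direction; compounds that gave an IC50 in retests scored well above the rest, so higher reads as stronger inhibition. Values scatter widely below zero; nearly all retest evidence comes from the higher of the two concentrations used. Size under these conditions: about 64,000 compounds, about 940 of them at 50% or above in at least one test.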

Results are given as percent effect.
How 0% and 100% were set is not recorded. Most values in the screen are low, and negative values occur.
The compounds are a random part of those screened.

CN(CC(=O)Nc1cc(-n2nnnc2C2CC2)ccc1F)C1CCC1 read 2.057%. For COc1ccc(OC2CCN(C(=O)CCc3nc(Cl)n[nH]3)CC2)cc1 the result was 16.32%. O=C(NCCN1CCNCC1)c1nc2ccccc2c(=O)[nH]1 gave -18.88%. With COc1ccc(CNCc2c(C(C)C)nn(C)c2OC)cn1 the screen gave 9.914%. Result for CCc1noc(CN2CCCC2c2noc(C3CC3)n2)n1 (centres unmarked) was -30.02%. O=C(Cc1ccc(F)cc1F)NCC(=O)Nc1ccccn1 read -9.837%. With Cc1cnc2[nH]c(C(F)(F)F)c(CN3CCCC(CO)C3)c2c1 (centres unmarked) the screen gave 22.86%.

With Cc1ccc(C)c(NC(=O)N(C)Cc2cnn(C)c2)c1 the screen gave -35.56%. For [H][C@@]12CN(C(=O)c3cccnc3)C[C@]1([H])OCCN2CCN1CCCC1 the result was 3.814%. OC(COCc1ccccc1Cl)CN1CC(n2cccn2)C1 (centres unmarked) read -2.397%. O=C(c1cc(Cl)c2c(c1)OCO2)N1CCN(c2cnccn2)CC1 read -37.59%. Cc1cccc(CS(=O)(=O)CC(=O)NCCCOC(C)C)c1 read 1.871%. For CC(C)[C@H]1CN(Cc2nccn2C)C[C@@H]1NC(=O)COCC(N)=O the result was -27.24%. For Cn1ccnc1CN1CCOC(Cn2cccn2)C1 (centres unmarked) the result was -18.03%.

For N#CCSCCCN1CCN(C(=O)C2CCCC2)CC1 the result was -12.53%.

Measurements from “University of Dundee, Small-Polar-MMV Screening Library” (2021), ChEMBL document CHEMBL3988442.